In paper PMC6316800:
Results are given in words; binding and its absence hold for the method and conditions named. Binding seen in cells or lysates may run through a third protein. Here binding means that the protein was enriched with, or labelled near, the bait; the list need not be complete.

Chains of the proteins cited; added tags and fusions are not shown.
UniProt P03496: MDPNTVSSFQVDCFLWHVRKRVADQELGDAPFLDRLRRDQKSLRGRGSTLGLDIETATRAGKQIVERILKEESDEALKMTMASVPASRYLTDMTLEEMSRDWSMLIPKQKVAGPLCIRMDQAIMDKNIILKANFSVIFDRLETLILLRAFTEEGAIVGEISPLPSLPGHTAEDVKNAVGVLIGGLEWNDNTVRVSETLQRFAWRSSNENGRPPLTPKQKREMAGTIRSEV

B1: Ribosome-binding protein 1 (protein, UniProt Q9P2E9 1-1410)
chain: MDIYDTQTLGVVVFGGFMVVSAIGIFLVSTFSMKETSYEEALANQRKEMAKTHHQKVEKKKKEKTVEKKGKTKKKEEKPNGKIPDHDPAPNVTVLLREPVRAPAVAVAPTPVQPPIIVAPVATVPAMPQEKLASSPKDKKKKEKKVAKVEPAVSSVVNSIQVLTSKAAILETAPKEVPMVVVPPVGAKGNTPATGTTQGKKAEGTQNQSKKAEGAPNQGRKAEGTPNQGKKTEGTPNQGKKAEGTPNQGKKAEGTPNQGKKAEGAQNQGKKVDTTPNQGKKVEGAPTQGRKAEGAQNQAKKVEGAQNQGKKAEGAQNQGKKGEGAQNQGKKAEGAQNQGKKAEGAQNQGKKAEGAQNQGKKAEGAQNQGKKAEGAQNQGKKAEGAQNQGKKVEGAQNQGKKAEGAQNQGKKAEGAQNQGKKAEGAQNQGKKAEGAQNQGKKAEGAQNQGKKAEGAQNQGKKAEGAQNQGKKVEGAQNQGKKAEGAQNQGKKAEGAQNQGKKAEGAQNQGQKGEGAQNQGKKTEGAQGKKAERSPNQGKKGEGAPIQGKKADSVANQGTKVEGITNQGKKAEGSPSEGKKAEGSPNQGKKADAAANQGKKTESASVQGRNTDVAQSPEAPKQEAPAKKKSGSKKKGEPGPPDADGPLYLPYKTLVSTVGSMVFNEGEAQRLIEILSEKAGIIQDTWHKATQKGDPVAILKRQLEEKEKLLATEQEDAAVAKSKLRELNKEMAAEKAKAAAGEAKVKKQLVAREQEITAVQARMQASYREHVKEVQQLQGKIRTLQEQLENGPNTQLARLQQENSILRDALNQATSQVESKQNAELAKLRQELSKVSKELVEKSEAVRQDEQQRKALEAKAAAFEKQVLQLQASHRESEEALQKRLDEVSRELCHTQSSHASLRADAEKAQEQQQQMAELHSKLQSSEAEVRSKCEELSGLHGQLQEARAENSQLTERIRSIEALLEAGQARDAQDVQASQAEADQQQTRLKELESQVSGLEKEAIELREAVEQQKVKNNDLREKNWKAMEALATAEQACKEKLLSLTQAKEESEKQLCLIEAQTMEALLALLPELSVLAQQNYTEWLQDLKEKGPTLLKHPPAPAEPSSDLASKLREAEETQSTLQAECDQYRSILAETEGMLRDLQKSVEEEEQVWRAKVGAAEEELQKSRVTVKHLEEIVEKLKGELESSDQVREHTSHLEAELEKHMAAASAECQNYAKEVAGLRQLLLESQSQLDAAKSEAQKQSDELALVRQQLSEMKSHVEDGDIAGAPASSPEAPPAEQDPVQLKTQLEWTEAILEDEQTQRQKLTAEFEEAQTSACRLQEELEKLRTAGPLESSETEEASQLKERLEKEKKLTSDLGRAATRLQELLKTTQEQLAREKDTVKKLQEQLEKAEDGSSSKEGTSV
B2: Ribosomal RNA processing protein 1 homolog A (protein, UniProt P56182 1-461)
chain: MVSRVQLPPEIQLAQRLAGNEQVTRDRAVRKLRKYIVARTQRAAGGFTHDELLKVWKGLFYCMWMQDKPLLQEELGRTISQLVHAFQTTEAQHLFLQAFWQTMNREWTGIDRLRLDKFYMLMRMVLNESLKVLKMQGWEERQIEELLELLMTEILHPSSQAPNGVKSHFIEIFLEELTKVGAEELTADQNLKFIDPFCRIAARTKDSLVLNNITRGIFETIVEQAPLAIEDLLNELDTQDEEVASDSDESSEGGERGDALSQKRSEKPPAGSICRAEPEAGEEQAGDDRDSGGPVLQFDYEAVANRLFEMASRQSTPSQNRKRLYKVIRKLQDLAGGIFPEDEIPEKACRRLLEGRRQKKTKKQKRLLRLQQERGKGEKEPPSPGMERKRSRRRGVGADPEARAEAGEQPGTAERALLRDQPRGRGQRGARQRRRTPRPLTSARAKAANVQEPEKKKKRRE
B3: RRP12-like protein (protein, UniProt Q5JTH9 1-1297)
chain: MGRSGKLPSGVSAKLKRWKKGHSSDSNPAICRHRQAARSRFFSRPSGRSDLTVDAVKLHNELQSGSLRLGKSEAPETPMEEEAELVLTEKSSGTFLSGLSDCTNVTFSKVQRFWESNSAAHKEICAVLAAVTEVIRSQGGKETETEYFAALMTTMEAVESPESLAAVAYLLNLVLKRVPSPVLIKKFSDTSKAFMDIMSAQASSGSTSVLRWVLSCLATLLRKQDLEAWGYPVTLQVYHGLLSFTVHPKPKIRKAAQHGVCSVLKGSEFMFEKAPAHHPAAISTAKFCIQEIEKSGGSKEATTTLHMLTLLKDLLPCFPEGLVKSCSETLLRVMTLSHVLVTACAMQAFHSLFHARPGLSTLSAELNAQIITALYDYVPSENDLQPLLAWLKVMEKAHINLVRLQWDLGLGHLPRFFGTAVTCLLSPHSQVLTAATQSLKEILKECVAPHMADIGSVTSSASGPAQSVAKMFRAVEEGLTYKFHAAWSSVLQLLCVFFEACGRQAHPVMRKCLQSLCDLRLSPHFPHTAALDQAVGAAVTSMGPEVVLQAVPLEIDGSEETLDFPRSWLLPVIRDHVQETRLGFFTTYFLPLANTLKSKAMDLAQAGSTVESKIYDTLQWQMWTLLPGFCTRPTDVAISFKGLARTLGMAISERPDLRVTVCQALRTLITKGCQAEADRAEVSRFAKNFLPILFNLYGQPVAAGDTPAPRRAVLETIRTYLTITDTQLVNSLLEKASEKVLDPASSDFTRLSVLDLVVALAPCADEAAISKLYSTIRPYLESKAHGVQKKAYRVLEEVCASPQGPGALFVQSHLEDLKKTLLDSLRSTSSPAKRPRLKCLLHIVRKLSAEHKEFITALIPEVILCTKEVSVGARKNAFALLVEMGHAFLRFGSNQEEALQCYLVLIYPGLVGAVTMVSCSILALTHLLFEFKGLMGTSTVEQLLENVCLLLASRTRDVVKSALGFIKVAVTVMDVAHLAKHVQLVMEAIGKLSDDMRRHFRMKLRNLFTKFIRKFGFELVKRLLPEEYHRVLVNIRKAEARAKRHRALSQAAVEEEEEEEEEEEPAQGKGDSIEEILADSEDEEDNEEEERSRGKEQRKLARQRSRAWLKEGGGDEPLNFLDPKVAQRVLATQPGPGRGRKKDHGFKVSADGRLIIREEADGNKMEEEEGAKGEDEEMADPMEDVIIRNKKHQKLKHQKEAEEEELEIPPQYQAGGSGIHRPVAKKAMPGAEYKAKKAKGDVKKKGRPDPYAYIPLNRSKLNRRKKMKLQGQFKGLVKAARRGSQVGHKNRRKDRRP
B4: Ribosomal RNA processing protein 1 homolog B (protein, UniProt Q14684 1-758)
chain: MAPAMQPAEIQFAQRLASSEKGIRDRAVKKLRQYISVKTQRETGGFSQEELLKIWKGLFYCMWVQDEPLLQEELANTIAQLVHAVNNSAAQHLFIQTFWQTMNREWKGIDRLRLDKYYMLIRLVLRQSFEVLKRNGWEESRIKVFLDVLMKEVLCPESQSPNGVRFHFIDIYLDELSKVGGKELLADQNLKFIDPFCKIAAKTKDHTLVQTIARGVFEAIVDQSPFVPEETMEEQKTKVGDGDLSAEEIPENEVSLRRAVSKKKTALGKNHSRKDGLSDERGRDDCGTFEDTGPLLQFDYKAVADRLLEMTSRKNTPHFNRKRLSKLIKKFQDLSEGSSISQLSFAEDISADEDDQILSQGKHKKKGNKLLEKTNLEKEKGSRVFCVEEEDSESSLQKRRRKKKKKHHLQPENPGPGGAAPSLEQNRGREPEASGLKALKARVAEPGAEATSSTGEESGSEHPPAVPMHNKRKRPRKKSPRAHREMLESAVLPPEDMSQSGPSGSHPQGPRGSPTGGAQLLKRKRKLGVVPVNGSGLSTPAWPPLQQEGPPTGPAEGANSHTTLPQRRRLQKKKAGPGSLELCGLPSQKTASLKKRKKMRVMSNLVEHNGVLESEAGQPQALGSSGTCSSLKKQKLRAESDFVKFDTPFLPKPLFFRRAKSSTATHPPGPAVQLNKTPSSSKKVTFGLNRNMTAEFKKTDKSILVSPTGPSRVAFDPEQKPLHGVLKTPTSSPASSPLVAKKPLTTTPRRRPRAMDFF
B5: Ribosomal RNA-processing protein 7 homolog A (protein, UniProt Q9Y3A4 1-280)
chain: MVARRRKCAARDPEDRIPSPLGYAAIPIKFSEKQQASHYLYVRAHGVRQGTKSTWPQKRTLFVLNVPPYCTEESLSRLLSTCGLVQSVELQEKPDLAESPKESRSKFFHPKPVPGFQVAYVVFQKPSGVSAALALKGPLLVSTESHPVKSGIHKWISDYADSVPDPEALRVEVDTFMEAYDQKIAEEEAKAKEEEGVPDEEGWVKVTRRGRRPVLPRTEAASLRVLERERRKRSRKELLNFYAWQHRESKMEHLAQLRKKFEEDKQRIELLRAQRKFRPY
B6: Ribosomal RNA-processing protein 8 (protein, UniProt O43159 1-456)
chain: MFEEPEWAEAAPVAAGLGPVISRPPPAASSQNKGSKRRQLLATLRALEAASLSQHPPSLCISDSEEEEEERKKKCPKKASFASASAEVGKKGKKKCQKQGPPCSDSEEEVERKKKCHKQALVGSDSAEDEKRKRKCQKHAPINSAQHLDNVDQTGPKAWKGSTTNDPPKQSPGSTSPKPPHTLSRKQWRNRQKNKRRCKNKFQPPQVPDQAPAEAPTEKTEVSPVPRTDSHEARAGALRARMAQRLDGARFRYLNEQLYSGPSSAAQRLFQEDPEAFLLYHRGFQSQVKKWPLQPVDRIARDLRQRPASLVVADFGCGDCRLASSIRNPVHCFDLASLDPRVTVCDMAQVPLEDESVDVAVFCLSLMGTNIRDFLEEANRVLKPGGLLKVAEVSSRFEDVRTFLRAVTKLGFKIVSKDLTNSHFFLFDFQKTGPPLVGPKAQLSGLQLQPCLYKRR
B7: U3 small nucleolar RNA-interacting protein 2 (protein, UniProt O43818 1-475)
chain: MSATAAARKRGKPASGAGAGAGAGKRRRKADSAGDRGKSKGGGKMNEEISSDSESESLAPRKPEEEEEEELEETAQEKKLRLAKLYLEQLRQQEEEKAEARAFEEDQVAGRLKEDVLEQRGRLQKLVAKEIQAPASADIRVLRGHQLSITCLVVTPDDSAIFSAAKDCSIIKWSVESGRKLHVIPRAKKGAEGKPPGHSSHVLCMAISSDGKYLASGDRSKLILIWEAQSCQHLYTFTGHRDAVSGLAFRRGTHQLYSTSHDRSVKVWNVAENSYVETLFGHQDAVAALDALSRECCVTAGGRDGTVRVWKIPEESQLVFYGHQGSIDCIHLINEEHMVSGADDGSVALWGLSKKRPLALQREAHGLRGEPGLEQPFWISSVAALLNTDLVATGSHSSCVRLWQCGEGFRQLDLLCDIPLVGFINSLKFSSSGDFLVAGVGQEHRLGRWWRIKEARNSVCIIPLRRVPVPPAAGS
B8: Ribosome biogenesis regulatory protein homolog (protein, UniProt Q15050 1-365)
chain: MEGQSVEELLAKAEQDEAEKLQRITVHKELELQFDLGNLLASDRNPPTGLRCAGPTPEAELQALARDNTQLLINQLWQLPTERVEEAIVARLPEPTTRLPREKPLPRPRPLTRWQQFARLKGIRPKKKTNLVWDEVSGQWRRRWGYQRARDDTKEWLIEVPGNADPLEDQFAKRIQAKKERVAKNELNRLRNLARAHKMQLPSAAGLHPTGHQSKEELGRAMQVAKVSTASVGRFQERLPKEKVPRGSGKKRKFQPLFGDFAAEKKNQLELLRVMNSKKPQLDVTRATNKQMREEDQEEAAKRRKMSQKGKRKGGRQGPGGKRKGGPPSQGGKRKGGLGGKMNSGPPGLGGKRKGGQRPGGKRRK

The binders below were run against Influenza A virus non-structural protein 1 (NS1), strain A/Puerto Rico/8/1934(H1N1) (Influenza A virus A/Puerto Rico/8/1934(H1N1)) (UniProt P03496) (assay: affinity purification with mass spectrometry).
For B1, the binding was “binds”. In the case of B2, the binding is reported as “binds”. B3 was tested, and the binding was “binds”. With B4 the binding was “binds”. With B5 the binding was “binds”. In the case of B6, the binding is reported as “binds”. For B7, the binding was “binds”. With B8 the binding was “binds”.
